Laboratory results from PMC3219604.
Numbering of substitutions follows the chain as printed. Construct, isoform or probe ends are uncertain for at least one entry. Tags and fusion partners may be left off the protein sequences shown.

Experiments:
Test in all cases: EMSA
[1] = molecular target: T1, OrfAB-GFP GMF28 S44N S59N (UniProt P51026); conditions: 20 mM Tris-Cl pH 8.0, 1 mM EDTA, 5 ug/mL calf thymus DNA, 10 nM DNA, 0.11-0.13 uM protein, 30 min at 20 C; gels at 4 C; recombinant protein; protein details: 6xHis, C-terminal GFPuv; label: 5'-32P upper strand; counted as no binding
T1 sequence (looked up, limits assumed): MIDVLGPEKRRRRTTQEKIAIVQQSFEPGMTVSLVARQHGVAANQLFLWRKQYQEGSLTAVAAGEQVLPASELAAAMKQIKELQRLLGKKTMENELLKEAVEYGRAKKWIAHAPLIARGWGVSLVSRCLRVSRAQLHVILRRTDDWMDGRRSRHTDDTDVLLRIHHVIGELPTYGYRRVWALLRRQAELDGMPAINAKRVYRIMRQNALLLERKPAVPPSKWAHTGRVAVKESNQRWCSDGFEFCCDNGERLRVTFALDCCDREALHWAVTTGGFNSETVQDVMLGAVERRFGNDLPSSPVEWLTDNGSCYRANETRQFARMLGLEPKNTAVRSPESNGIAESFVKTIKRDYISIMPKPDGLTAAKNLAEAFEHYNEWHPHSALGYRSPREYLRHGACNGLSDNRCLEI

[2] = molecular target: T2, OrfAB-GFP GMF3 R291H R306H (UniProt P51026); conditions: 20 mM Tris-Cl pH 8.0, 1 mM EDTA, 5 ug/mL calf thymus DNA, 10 nM DNA, 0.11-0.13 uM protein, 30 min at 20 C; gels at 4 C; recombinant protein; protein details: 6xHis, C-terminal GFPuv; label: 5'-32P upper strand
T2 sequence (looked up, limits assumed): T1 sequence (looked up, limits assumed) with N44S, R291H

[3] = molecular target: T3, OrfAB-GFP GMF68 H267D H282D (UniProt P51026); conditions: 20 mM Tris-Cl pH 8.0, 1 mM EDTA, 5 ug/mL calf thymus DNA, 10 nM DNA, 0.11-0.13 uM protein, 30 min at 20 C; gels at 4 C; recombinant protein; protein details: 6xHis, C-terminal GFPuv; label: 5'-32P upper strand
T3 sequence (looked up, limits assumed): T1 sequence (looked up, limits assumed) with N44S, H267D

[4] = molecular target: T4, OrfAB-GFP GMF37 W49R W64R (UniProt P51026); conditions: 20 mM Tris-Cl pH 8.0, 1 mM EDTA, 5 ug/mL calf thymus DNA, 10 nM DNA, 0.11-0.13 uM protein, 30 min at 20 C; gels at 4 C; recombinant protein; protein details: 6xHis, C-terminal GFPuv; label: 5'-32P upper strand
T4 sequence (looked up, limits assumed): T1 sequence (looked up, limits assumed) with N44S, W49R

[5] = molecular target: T5, OrfAB-GFP GMF40 V35L V50L (UniProt P51026); conditions: 20 mM Tris-Cl pH 8.0, 1 mM EDTA, 5 ug/mL calf thymus DNA, 10 nM DNA, 0.11-0.13 uM protein, 30 min at 20 C; gels at 4 C; recombinant protein; protein details: 6xHis, C-terminal GFPuv; label: 5'-32P upper strand
T5 sequence (looked up, limits assumed): T1 sequence (looked up, limits assumed) with V35L, N44S

[6] = molecular target: T6, OrfAB-GFP GMF18 A42T/L97H A57T,L112H (UniProt P51026); conditions: 20 mM Tris-Cl pH 8.0, 1 mM EDTA, 5 ug/mL calf thymus DNA, 10 nM DNA, 0.11-0.13 uM protein, 30 min at 20 C; gels at 4 C; recombinant protein; protein details: 6xHis, C-terminal GFPuv; label: 5'-32P upper strand
T6 sequence (looked up, limits assumed): T1 sequence (looked up, limits assumed) with A42T, N44S, L97H

GGATCCTTAAGTGATAACAGATGTCTGGAAATATAGGGGCAAATCCAGCG (double strand) [IRR 50-mer]
binding signal (binding score (0-5)) [1]: 0 | binding signal (binding score (0-5)) [2]: 2.5 | binding signal (binding score (0-5)) [3]: 2.5 | binding signal (binding score (0-5)) [4]: 5 | binding signal (binding score (0-5)) [5]: 4 | binding signal (binding score (0-5)) [6]: 3.5
